Measured values: paper PMC11416316
These are yes or no findings as the source states them, for the method shown. Some binding calls cover weakened binding; strength is not graded here.

Sequences of proteins named here, by UniProt entry; tags and fusion partners are left off. A change or cut given only in a name is not applied to a line headed by its entry.
UniProt P35729: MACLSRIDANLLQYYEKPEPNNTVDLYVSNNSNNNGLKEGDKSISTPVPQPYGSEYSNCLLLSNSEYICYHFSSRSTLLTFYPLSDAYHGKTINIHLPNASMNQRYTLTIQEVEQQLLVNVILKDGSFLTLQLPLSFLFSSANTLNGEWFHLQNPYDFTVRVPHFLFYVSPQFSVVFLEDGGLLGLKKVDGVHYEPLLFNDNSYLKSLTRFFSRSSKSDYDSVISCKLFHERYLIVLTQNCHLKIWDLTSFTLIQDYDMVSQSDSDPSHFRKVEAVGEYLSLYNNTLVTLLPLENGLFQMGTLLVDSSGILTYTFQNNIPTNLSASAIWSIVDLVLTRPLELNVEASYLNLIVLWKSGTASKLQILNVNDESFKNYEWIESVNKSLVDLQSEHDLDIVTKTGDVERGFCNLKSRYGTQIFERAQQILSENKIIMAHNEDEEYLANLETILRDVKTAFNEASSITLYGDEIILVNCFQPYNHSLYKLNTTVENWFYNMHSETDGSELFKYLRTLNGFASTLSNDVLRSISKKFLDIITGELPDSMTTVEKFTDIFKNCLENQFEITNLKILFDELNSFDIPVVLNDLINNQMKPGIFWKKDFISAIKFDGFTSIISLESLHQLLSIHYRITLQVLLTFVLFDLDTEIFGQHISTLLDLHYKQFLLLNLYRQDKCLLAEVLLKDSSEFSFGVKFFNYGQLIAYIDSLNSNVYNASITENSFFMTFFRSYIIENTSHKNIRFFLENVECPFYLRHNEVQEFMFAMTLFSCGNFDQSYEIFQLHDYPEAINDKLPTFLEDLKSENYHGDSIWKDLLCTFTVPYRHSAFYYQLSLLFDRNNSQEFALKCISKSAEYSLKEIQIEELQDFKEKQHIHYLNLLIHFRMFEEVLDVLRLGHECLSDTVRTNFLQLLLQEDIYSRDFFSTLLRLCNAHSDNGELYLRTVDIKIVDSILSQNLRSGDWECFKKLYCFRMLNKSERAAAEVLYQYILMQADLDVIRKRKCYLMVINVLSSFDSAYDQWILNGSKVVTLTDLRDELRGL
UniProt Q9Z0W3: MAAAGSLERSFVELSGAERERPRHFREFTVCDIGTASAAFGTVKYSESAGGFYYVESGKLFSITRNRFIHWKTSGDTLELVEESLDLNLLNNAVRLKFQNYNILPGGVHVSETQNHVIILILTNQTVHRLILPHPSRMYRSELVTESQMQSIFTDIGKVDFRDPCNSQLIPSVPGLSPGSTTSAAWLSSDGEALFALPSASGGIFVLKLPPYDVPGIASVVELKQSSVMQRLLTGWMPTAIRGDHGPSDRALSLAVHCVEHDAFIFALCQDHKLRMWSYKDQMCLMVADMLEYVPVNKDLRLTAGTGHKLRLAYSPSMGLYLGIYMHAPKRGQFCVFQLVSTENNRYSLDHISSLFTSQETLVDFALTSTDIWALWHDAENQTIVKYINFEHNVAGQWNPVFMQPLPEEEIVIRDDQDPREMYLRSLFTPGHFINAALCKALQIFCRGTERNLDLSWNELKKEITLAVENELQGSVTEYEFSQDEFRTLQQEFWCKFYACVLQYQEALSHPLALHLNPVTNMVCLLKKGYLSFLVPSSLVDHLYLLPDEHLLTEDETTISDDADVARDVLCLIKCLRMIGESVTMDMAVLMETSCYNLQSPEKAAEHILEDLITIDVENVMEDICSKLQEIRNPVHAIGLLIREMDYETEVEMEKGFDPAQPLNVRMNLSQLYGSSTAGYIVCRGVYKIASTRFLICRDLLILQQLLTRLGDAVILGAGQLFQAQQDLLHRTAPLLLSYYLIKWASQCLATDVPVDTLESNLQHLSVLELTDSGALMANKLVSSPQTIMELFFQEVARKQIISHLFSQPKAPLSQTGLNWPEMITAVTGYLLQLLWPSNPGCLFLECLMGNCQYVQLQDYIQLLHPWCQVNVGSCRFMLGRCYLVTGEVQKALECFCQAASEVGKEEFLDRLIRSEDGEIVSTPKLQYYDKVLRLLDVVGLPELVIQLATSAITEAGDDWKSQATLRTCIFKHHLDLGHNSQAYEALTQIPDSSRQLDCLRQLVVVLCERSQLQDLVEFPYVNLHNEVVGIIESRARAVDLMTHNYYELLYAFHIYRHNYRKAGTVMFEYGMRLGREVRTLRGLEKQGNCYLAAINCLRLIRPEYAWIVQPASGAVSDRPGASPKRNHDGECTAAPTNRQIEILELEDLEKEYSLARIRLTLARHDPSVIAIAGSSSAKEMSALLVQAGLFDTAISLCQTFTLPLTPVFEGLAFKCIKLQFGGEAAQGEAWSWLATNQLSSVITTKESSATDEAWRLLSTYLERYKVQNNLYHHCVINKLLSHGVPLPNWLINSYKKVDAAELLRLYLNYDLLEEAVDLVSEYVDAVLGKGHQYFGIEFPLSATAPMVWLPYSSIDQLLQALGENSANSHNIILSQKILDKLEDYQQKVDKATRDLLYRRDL
UniProt F6ZDS4: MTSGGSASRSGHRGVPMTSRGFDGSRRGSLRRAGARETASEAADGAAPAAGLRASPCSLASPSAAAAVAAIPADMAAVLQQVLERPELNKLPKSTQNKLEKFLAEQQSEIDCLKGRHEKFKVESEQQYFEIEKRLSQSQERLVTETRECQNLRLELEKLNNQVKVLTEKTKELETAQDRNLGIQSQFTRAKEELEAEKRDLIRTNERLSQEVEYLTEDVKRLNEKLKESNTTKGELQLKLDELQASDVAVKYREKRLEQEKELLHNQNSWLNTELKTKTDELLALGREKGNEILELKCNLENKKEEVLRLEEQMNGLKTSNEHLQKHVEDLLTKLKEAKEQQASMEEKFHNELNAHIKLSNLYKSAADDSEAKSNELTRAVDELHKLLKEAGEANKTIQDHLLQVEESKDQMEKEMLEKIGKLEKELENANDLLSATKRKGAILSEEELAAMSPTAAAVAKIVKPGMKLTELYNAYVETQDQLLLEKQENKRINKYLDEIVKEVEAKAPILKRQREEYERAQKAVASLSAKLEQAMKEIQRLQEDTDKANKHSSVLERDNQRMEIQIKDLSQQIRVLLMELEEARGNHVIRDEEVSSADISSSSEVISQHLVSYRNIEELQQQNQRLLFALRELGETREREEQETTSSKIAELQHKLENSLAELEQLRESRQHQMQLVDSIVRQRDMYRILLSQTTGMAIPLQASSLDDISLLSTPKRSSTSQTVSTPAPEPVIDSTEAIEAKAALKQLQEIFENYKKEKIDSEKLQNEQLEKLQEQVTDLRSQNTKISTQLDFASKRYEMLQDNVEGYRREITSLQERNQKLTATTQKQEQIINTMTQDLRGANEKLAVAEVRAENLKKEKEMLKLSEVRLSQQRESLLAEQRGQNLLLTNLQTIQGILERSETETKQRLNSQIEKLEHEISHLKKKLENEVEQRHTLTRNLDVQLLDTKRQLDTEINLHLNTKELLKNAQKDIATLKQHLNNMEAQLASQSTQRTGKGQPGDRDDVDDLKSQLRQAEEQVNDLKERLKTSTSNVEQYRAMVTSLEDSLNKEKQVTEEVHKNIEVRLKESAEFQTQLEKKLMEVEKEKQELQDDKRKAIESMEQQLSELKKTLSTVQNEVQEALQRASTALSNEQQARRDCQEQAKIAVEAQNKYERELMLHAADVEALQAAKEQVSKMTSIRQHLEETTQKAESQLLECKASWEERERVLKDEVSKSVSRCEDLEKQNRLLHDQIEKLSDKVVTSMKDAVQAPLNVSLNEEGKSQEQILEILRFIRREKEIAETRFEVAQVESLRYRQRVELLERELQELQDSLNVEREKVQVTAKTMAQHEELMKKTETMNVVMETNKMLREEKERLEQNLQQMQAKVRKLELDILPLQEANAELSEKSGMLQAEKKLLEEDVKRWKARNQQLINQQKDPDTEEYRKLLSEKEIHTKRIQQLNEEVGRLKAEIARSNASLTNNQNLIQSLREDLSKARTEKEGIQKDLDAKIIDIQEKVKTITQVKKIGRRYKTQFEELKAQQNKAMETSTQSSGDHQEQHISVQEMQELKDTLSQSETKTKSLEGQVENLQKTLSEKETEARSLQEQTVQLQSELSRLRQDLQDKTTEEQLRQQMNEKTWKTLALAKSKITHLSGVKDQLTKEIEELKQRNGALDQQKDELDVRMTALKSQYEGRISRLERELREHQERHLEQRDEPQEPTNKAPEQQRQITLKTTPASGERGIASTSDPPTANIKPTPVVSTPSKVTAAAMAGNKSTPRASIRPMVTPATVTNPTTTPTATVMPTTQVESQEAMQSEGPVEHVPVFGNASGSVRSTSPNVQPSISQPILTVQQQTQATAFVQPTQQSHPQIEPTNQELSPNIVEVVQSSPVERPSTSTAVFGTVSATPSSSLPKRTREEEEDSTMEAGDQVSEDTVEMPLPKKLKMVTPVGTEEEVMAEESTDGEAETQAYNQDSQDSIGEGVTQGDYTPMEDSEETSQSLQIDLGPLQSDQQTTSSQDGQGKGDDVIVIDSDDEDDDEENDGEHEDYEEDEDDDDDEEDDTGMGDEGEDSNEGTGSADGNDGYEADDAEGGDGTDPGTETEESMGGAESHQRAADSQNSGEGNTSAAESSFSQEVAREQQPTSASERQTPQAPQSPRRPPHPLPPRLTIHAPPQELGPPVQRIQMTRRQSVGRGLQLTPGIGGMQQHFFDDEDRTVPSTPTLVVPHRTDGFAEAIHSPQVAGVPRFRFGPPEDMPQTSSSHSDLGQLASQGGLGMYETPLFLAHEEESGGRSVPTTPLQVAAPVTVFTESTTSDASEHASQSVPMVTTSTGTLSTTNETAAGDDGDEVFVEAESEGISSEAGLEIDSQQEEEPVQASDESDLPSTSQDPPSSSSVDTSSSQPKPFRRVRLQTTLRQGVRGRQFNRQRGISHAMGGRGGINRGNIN
UniProt P39705: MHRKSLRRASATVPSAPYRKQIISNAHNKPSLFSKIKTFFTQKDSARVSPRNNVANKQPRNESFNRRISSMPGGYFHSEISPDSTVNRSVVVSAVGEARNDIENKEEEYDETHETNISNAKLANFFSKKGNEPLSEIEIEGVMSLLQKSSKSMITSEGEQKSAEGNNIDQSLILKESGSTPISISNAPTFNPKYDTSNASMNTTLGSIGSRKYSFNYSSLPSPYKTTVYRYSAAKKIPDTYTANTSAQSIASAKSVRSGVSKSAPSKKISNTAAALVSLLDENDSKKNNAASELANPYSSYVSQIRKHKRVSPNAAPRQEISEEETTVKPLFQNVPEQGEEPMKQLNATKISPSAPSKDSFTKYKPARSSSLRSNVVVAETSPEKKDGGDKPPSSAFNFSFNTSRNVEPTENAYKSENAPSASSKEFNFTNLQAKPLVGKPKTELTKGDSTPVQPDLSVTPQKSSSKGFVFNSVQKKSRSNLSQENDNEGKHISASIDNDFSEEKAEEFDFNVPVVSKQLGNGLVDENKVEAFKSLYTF

B1: mNup153 (protein, UniProt E9Q3G8 1-1462)
chain: MASEAGGIGGGGGGGKIRTRRCHQGPVKPYQQGRPQHQGILSRVTESVKNIVPGWLQRYFNKSENACSCSPDADEVPPWPENREDEHAIYADENTNTDDGRITPDPAGSNTEEPSTTSTASNYPDVLTRPSLHRSHLNFSVLESPALHCQPSTSSAFPIGSSGFSLVKEIKDSTSQHDDDNISTTSGFSSRASEKDIAVSKNTSLPPLWSPEAERSHSLSQHTAISSKKPAFNLSAFGTLSTSLGNSSILKTSQLGDSPFYPGKTTYGGAAAAVRQNKVRSTPYQAPVRRQMKAKQLNAQSYGVTSSTARRILQSLEKMSSPLADAKRIPSAVSSPLNSPLDRSGIDNTVFQAKKEKVDSQYPPVQRLMTPKPVSIATNRTVYFKPSLTPSGDLRKTNQRIDKKNSTVDEKSISRQNREQESGFSYPNFSIPAANGLSSGVGGGGGKMRRERTHFVAPKPPENEEVEAPLLPQISLPISSSSLPTFSFSSPVTSASPSPVSSSQPLPNKVQMTSLGSTGSPVFTFSSPIVKSTQAAVLPPASIGFTFSVPLAKTEFSGSNSSSETVLSSSAQDITAVNSSSYKKRSAPCEDPFTPAKILREGSVLDILKTPGFASPKVDSPALQPTTTSSIVYTRPAISTFSSSGIEYGESLKAGSSWQCDTCLLQNKVTDNKCIACQAAKLPLKETAKQTGTGTPSKSDKPASTSGTGFGDKFKPAIGTWDCDTCLVQNKPEAVKCVACETPKPGTGVKRALTLTVASESPVTASSSTTVTTGTLGFGDKFKRPVGSWECPVCCVCNKAEDNRCVSCTSEKPGLVSASSSSPAPVSLSSGGCLGLDKFKKPEGSWDCEVCLVQNKADSAKCIACESAKPGTKSEFKGFGTSSSLNPAPSAFKFGIPSSSSGLSQTLTSTGNFKFGDQGGFKLGTSSDSGSTNTMNTNFKFSKPTGDFKFGVLSDSKPEEVKNDNKNDNFQFGSSSGLTNPASSAPFQFGVSTLGQQEKKEELPKSSPAGFSFGAGVNNPPNAAIDTTATSENKSGFNFGTLDTKSVSVTPFTYKTTEAKKEDAPATKGGFTFGKVGSSSLPSSSMFVLGRTEEKQQEPVTSTSLVFGKKADSEEPKCQPVFSFGNSEQTKDESSKPTFSFSVAKPSGKESEQLAKATFAFGNQTNTTTDQGAAKPVFSFLNSSSSSSSAPATSSSGGIFGSSTSSSNPPVAAFVFGQASNPVSSSAFGNAAESSTSQSLLFPQESEPATTSSTAPAASPFVFGTGASSNSVSSGFTFGATTTSSSSGSSFVFGTGHSAPSASPAFGANQTPTFGQSQGASQPNPPSFGSISSSTALFSAGSQPVPPPIFGTVSSSSQPPVFGQQPSQSAFGSGTANASSVFQFGSSTTNFNFTNNNPSGVFTFGASPSTPAASAQPSGSGVFSFSQSPASFTVGSNGKNMFSSSGTSVSGRKIKTAVRRKK

Columns and labels:
[1] = molecular target: yNup84 complex of the proximal nuclear ring (heptameric Y-complex) (S. cerevisiae (endogenous in W303)) (UniProt P35729); assay: cryo-EM structure; in-cell cryo-ET with subtomogram averaging of the yeast NPC with a double nuclear ring, read by integrative modelling (cryo-ET map, DSS cross-links of affinity-purified NPCs, immuno-EM, co-purification data, coiled-coil propensities); coarse-grained model, overall precision 57 Å
[2] = molecular target: mNup107 complex of the proximal nuclear ring (nonameric Y-complex) (mouse (endogenous in NIH3T3)) (UniProt Q9Z0W3); assay: cryo-EM structure; in-cell cryo-ET with subtomogram averaging of the mouse (NIH3T3) NPC, read by integrative modelling (cryo-ET map and structural equivalence restraints to the yeast model; no cross-links or co-purification data); coarse-grained model, overall precision 42 Å
[3] = molecular target: mTpr (mouse (endogenous in NIH3T3)) (UniProt F6ZDS4); assay: as above

| Molecule | binding [1] | binding [2] | binding [3] |
| --- | --- | --- | --- |
| yNup60 (from UniProt P39705 1-539) | binds | – | – |
| B1 | – | binds | binds |
